Data published in the supplement of paper PMC10338343.
± gives the standard deviation. The entries are a selection whose mix differs from that of the whole data set. The uncertainty is large for many entries.

Tested on: MILI (PIWIL2) piRISC loaded with piRNA #2 (26 nt)
Assay: pre-steady-state target cleavage rate (min^-1); MIWI and MILI are mouse PIWI proteins and EfPiwi is from a freshwater sponge; tags in brackets are library labels; higher = faster piRNA-guided slicing of the target
Conditions: guide: piRNA #2 5'p-UUAGGUAACCCAGUAGAUCCAGAGGA; auxiliary factor: 500 nM mouse GTSF1
How it was run: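 The pre-steady-state cleavage rate was obtained by Cleave-'n-Seq with a burst-and-steady-state fit. A transcribed, DNA-blocked target RNA library (0.1 nM) was mixed with 1 nM active affinity-purified piRISC carrying one synthetic guide, with or without 500 nM GTSF1 partner protein, in HEPES–potassium acetate buffer at 33 °C for 0–8 or 0–960 min. Uncleaved targets were sequenced and normalised to depth and to weakly complementary targets, with three trials pooled and k3 capped at 0.0001 min^-1.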

| Sequence | pre-steady-state target cleavage rate |
| --- | --- |
| CUUAAGGAGACCUUCUACUGGGUGUACCUAA | 0.000713 ± 0.01 |
| CUUAAGGAGACGAUCUACUGGGUUAACCUAA | 0.00242 ± 0.0045 |
| CUUAAGCUCUGGAUCUACACCGUUACCUAA | 0.00171 ± 0.0074 |
| CUUAAGGAGUGGAUCUACUGGAGUUACCUAA | 0.000542 ± 0.012 |
| CUUAAGGAGACCUAGUUCUGGGUUAGCUAA | 0.000309 ± 0.035 |
| CUUAAGGAGACCAUCUACAUGGGUUACCUAA | 0.000463 ± 0.021 |
| CUUAAGGUCUGGAUCUACUGGGCUACCUAA | 0.00198 ± 0.0061 |
| CUUAAGGAGAGGAUCUACGGGUUACCUAA | 0.000812 ± 0.01 |
| CUUAAGGACUGGAACUACUGGGUUUCCUAA | 0.00042 ± 0.04 |
| CUUAAGGUCUGGAUGUACUGGGUUAGCUAA | 0.00595 ± 0.0085 |
| CUUAAGCUCUGGAUCAUGUGGGUUACCUAA | 0.00248 ± 0.0047 |
| CUUAAGGAGUGGAUCUACUGGCUUACCUAA | 0.000228 ± 0.036 |
| CUUAAGGAGACCAUCUCCUGGGUUACCUAA | 0.0019 ± 0.0091 |
| CUUAAGGACUGGAUCUACUGGGUUACCAA | 0.00347 ± 0.0078 |
| CUUAUCCUCUGGUACUACUGGGUUACCUAA | 0.754 ± 0.23 |
| CUUAAGGAGUGGAUCUACUGGGCUUACCUAA | 0.000323 ± 0.046 |
| CUUAAGGAGACAAUCUACUGGGUUACCUAA | 0.00179 ± 0.0045 |
| CUUAAGGAGACCUACUACAGGGAUACCUAA | 0.000189 ± 0.035 |
| CUUAAGGAGAGGAUCUACAGGGUAACCUAA | 0.00234 ± 0.0053 |
| CUUAAGGAGACCUUCUACUGUGUUACCUAA | 0.000158 ± 0.036 |
| CUUAACCUCUGGAUUACUGGGUUACCUAA | 0.0792 ± 0.024 |
| CUUAAGGAGAGGAACUACUCGGUUACCUAA | 0.000171 ± 0.033 |
| CUUAAGGAGACCUUCUACUGGGUAUCCUAA | 0.0003 ± 0.029 |
| CUUAAGGUCUGGAACUACUGGGUAACCUAA | 0.00543 ± 0.0077 |

A few values from the entries so far:
Entry of CUUAAGGUCUGGAUCUACUGGGCUACCUAA under pre-steady-state target cleavage rate: 0.00198 ± 0.0061
Entry of CUUAAGGAGACCUAGUUCUGGGUUAGCUAA under pre-steady-state target cleavage rate: 0.000309 ± 0.035
Entry of CUUAAGGACUGGAACUACUGGGUUUCCUAA under pre-steady-state target cleavage rate: 0.00042 ± 0.04
Entry of CUUAUCCUCUGGUACUACUGGGUUACCUAA under pre-steady-state target cleavage rate: 0.754 ± 0.23
Entry of CUUAAGGUCUGGAUGUACUGGGUUAGCUAA under pre-steady-state target cleavage rate: 0.00595 ± 0.0085

More entries follow.

| Sequence | pre-steady-state target cleavage rate |
| --- | --- |
| CUUAAGGAGUGGAUGUUCUGGGUUACCUAA | 0.00414 ± 0.0085 |
| CUUAAGGAGAGGAUCUACAGGGAUACCUAA | 0.00102 ± 0.015 |
| CUUAAGGAGACCUUCUACACCGUUACCUAA | 0.000849 ± 0.013 |
| CUUAAGGAGUGGAACUACUGGGUAACCUAA | 0.00198 ± 0.011 |
| CUUAACAUCUGGAUCUACUGGGUUACCUAA | 0.114 ± 0.019 |
| CUUAAGGUCUGGAUGUACUGGGUAACCUAA | 0.00502 ± 0.0077 |
| CUUAUCCUCUGGAUCUACUGGGUUAUCCUAA | 0.204 ± 0.046 |
| CUUAAGGACUGGAUCUACUGGGUUAACUAA | 0.003 ± 0.0095 |
| CUUAAGGAGACGAUGUACUGGGUUACCUUA | 0.000708 ± 0.014 |
| CUUAAGGAGACCAUCUACUGGGUUACCUAA [g2:g18:cont:t1A] | 0.00162 ± 0.0041 |
| CUUAAGGAGACCUACUACUGGGAUACCUAA | 0.000162 ± 0.021 |
| CUUAAGGAGACCAUCUACUGGGAUACCAAA | 0.000109 ± 0.032 |
| CUUAAGGAGAGGAUCUACUGCGUUACCAAA | 0.000348 ± 0.037 |
| CUUAAGCUCUGGAUCUACUGGCUUACGUAA | 0.000231 ± 0.021 |
| CUUAAGGAGACGAUCUUACUGGGUUACCUAA | 0.000618 ± 0.0079 |
| CUUAACCUCUGGAUCAACUCGGUUACCUAA | 0.00107 ± 0.0098 |
| CUUAUCCUCUGCAUCUACUGGGAUACCUAA | 0.0522 ± 0.025 |
| CUUAAGGAGUGGAUCUACUGGGUUCCUAA | 0.000546 ± 0.017 |
| CUUAAGGAGUGGAUCUACUGGGUACCUAA | 0.000578 ± 0.017 |
| CUUAUCCUCUGGAUCUACUGUGGUUACCUAA | 0.00184 ± 0.0049 |
| CUUAAGGAGUGGAUCUACUGGGUAACCUUA | 0.00357 ± 0.0049 |
| CUUAAGGAGACCUUCUACGGGUUACCUAA | 0.000614 ± 0.014 |
| CUUAACGUCUGGAUCUACUCGGUUACCUAA | 0.00178 ± 0.0086 |
| CUUAAGGAGACCAUCUACUGCCUUACCUAA | 0.000239 ± 0.013 |

| Sequence | pre-steady-state target cleavage rate |
| --- | --- |
| CUUAAGGAGUGGAUCUACUCGGGUUACCUAA | 0.000198 ± 0.046 |
| CUUAAGGAGUCGAUCUACUGGGUUACCAAA | 0.000928 ± 0.015 |
| CUUAAGCUCUGGAUCUACUGGGUUAGCUAA | 0.094 ± 0.018 |
| CUUAACCUCUGGAUCUACAGGCUUACCUAA | 0.00195 ± 0.0056 |
| CUUAAGGAGUGGAUCUACUGGGAUUCCUAA | 0.00134 ± 0.0052 |
| CUUAAGGAGACCAUCUGCUGGGUUACCUAA | 0.00101 ± 0.016 |
| CUUAAGGACUGGUUGUACUGGGUUACCUAA | 0.00801 ± 0.01 |
| CUUAAGGACUGGAUCUACUGGGUUAUCCUAA | 0.0104 ± 0.012 |
| CUUAAGGAGUGGUACUACUGGGUUACCUAA | 0.00115 ± 0.01 |
| CUUAAGGAGACCUACCUACUGGGUUACCUAA | 0.000305 ± 0.027 |
| CUUAAGGUCUGGAUCUACUGCGGUUACCUAA | 0.000824 ± 0.0095 |
| CUUAAGGAGACCAUCAACUGGGUUACCAAA | 0.000238 ± 0.036 |
| CUUAAGGACUGGAUCUACUGGGUUAGCUAA | 0.00637 ± 0.0065 |
| CUUAAGGAGUGGAUCUUACUGGGUUACCUAA | 0.000503 ± 0.012 |
| CUUAAGGAGACGAUCUACUGGGCUUACCUAA | 0.00011 ± 0.062 |
| CUUAAGGUGUCGAUCUACUGGGUUACCUAA | 0.0031 ± 0.0034 |
| CUUAAGGAGAGGAUCUACUGGAGUUACCUAA | 0.00101 ± 0.012 |
| CUUAAGGAGACGUUCUACUGGGUUACCUUA | 0.000497 ± 0.013 |
| CUUAAGGAGACCUAGUACUGGGUUACCUAG [g2:g15:cont:t1G] | 0.000552 ± 0.016 |
| CUUAAGGAGAGGAUCUUCUGGGUAACCUAA | 0.00081 ± 0.011 |
| CUUAAGGAGACCUUCUACUGGCUUAGCUAA | 0.00213 ± 0.006 |
| CUUAAGGAGACGUUCUACUGGGUUACCUAA | 0.0015 ± 0.0046 |
| CUUAUCCUCUGGAUCUUGACCCAAUGGAUA [g15:g26:cont:t1A] | 0.000479 ± 0.015 |
